This passage reports survivor count and T/C results from PubChem BioAssay AID330 (DTP/NCI, 2004).

In this test the test system is P388 leukemia ip, CD2F1 mice, survival T/C. Description: NCI In Vivo Anticancer Drug Screen. Data for tumor model P388 Leukemia (intraperitoneal) in CD2F1 (CDF1) mice. The note with it: T/C endpoint: median survival time, higher T/C = longer survival.
The mark [1] stands for this setting: dose: 60.0 mg/kg/injection, schedule: Q01DX005 (ip), vehicle: Klucel (hydroxypropylcellulose) (HPC).
Where [2] appears, read: dose: 120.0 mg/kg/injection, schedule: Q01DX005 (ip), vehicle: Klucel (hydroxypropylcellulose) (HPC).
Setting [3] is: dose: 240.0 mg/kg/injection, schedule: Q01DX005 (ip), vehicle: Klucel (hydroxypropylcellulose) (HPC).
The mark [4] stands for this setting: dose: 100.0 mg/kg/injection, schedule: Q01DX005 (ip), vehicle: saline with Tween-80.
Where [5] appears, read: dose: 200.0 mg/kg/injection, schedule: Q01DX005 (ip), vehicle: saline with Tween-80.
Setting [6] is: dose: 200.0 mg/kg/injection, schedule: Q01DX009 (ip), vehicle: saline.
Where [7] appears, read: dose: 20.0 mg/kg/injection, schedule: Q01DX009 (ip), vehicle: saline + alcohol.
The mark [8] stands for this setting: dose: 50.0 mg/kg/injection, schedule: Q01DX009 (ip), vehicle: saline.
Where [9] appears, read: dose: 100.0 mg/kg/injection, schedule: Q01DX009 (ip), vehicle: saline.

Structures are written as SMILES. The list does not hold the whole screen: it gathers tests that were run many times, whatever their T/C, doses with no T/C, and many T/C values between a quarter and a half above the control. Further doses and runs are listed elsewhere. T/C is the treated group as % of the vehicle group. Some entries give survivors of the animals treated and no T/C: the source files T/C as zero there, which appears to mark a toxic dose or a test without result, not a measured value. Some survivor counts are full or nearly so, which does not show that the dose was tolerated: the source hardly ever lists a survival T/C far under the control, and the zero likely stands for such cases as well. Survivors were counted at the toxicity check, usually on the fifth day, unless a day is given; later deaths do not show. Schedules are NCI's codes, read here as Q, the interval in days (D) or hours (H), X, the number of doses. Brackets with × give the number of equal values in this list. Some entries hold several experiments; the results are listed from low to high. For survival time, the PubChem record calls one and a half times the control and up active, and a quarter to a half above the control has no call in these data; cut-offs in other NCI protocols can differ. Some T/C values carry the count of animals alive at the toxicity check (mostly the fifth day); where none is given, no animal had died by that day.

For the molecule `CC1(C)N=C(N)N=C(N)N1c1cccc(CNc2ccc(S(N)(=O)=O)cc2)c1`, the survivor count reads like this: under setting [1], 0 of 6; under setting [2], 0 of 6; under setting [3], 0 of 6.

In the case of `CC(C)=CC[P+](CC[P+](CC=C(C)C)(c1ccccc1)c1ccccc1)(c1ccccc1)c1ccccc1`, the survivor count by setting is: (dose: 25.0 mg/kg/injection, schedule: Q01DX005 (ip), vehicle: saline with Tween-80) 0 of 5; (dose: 50.0 mg/kg/injection, schedule: Q01DX005 (ip), vehicle: saline with Tween-80) 5 of 5; under setting [4], 5 of 5; under setting [5], 5 of 5.

Turning to `O=C(O)CC1(C(=O)O)CCC(OCc2ccccc2)CC1` (stereo not drawn), the survivor count under setting [6] was 4 of 6.

As for `Nc1[nH]c(=S)[nH]c(=O)c1NS(=O)(=O)c1ccccc1[N+](=O)[O-]`, the T/C runs as follows: under setting [1], 142 % of control; under setting [2], 142 % of control; under setting [3], 141 % of control [4 of 6 alive].

For the molecule `CNC(=O)Sc1ccc(C)c(N(C)C)c1`, the T/C is 126 % of control under setting [4]; 127 and 133 % of control [5 of 6 alive] under setting [5]. For the same molecule, the survivor count (dose: 400.0 mg/kg/injection, schedule: Q01DX005 (ip), vehicle: saline with Tween-80) is given as 0 of 6.

As for `[Cl][Hg][c]1cccc(I)c1N=Nc1ccccc1`, the T/C is 87, 100, 100 [5 of 6 alive], 104 % of control (dose: 10.0 mg/kg/injection, schedule: Q01DX009 (ip), vehicle: saline + alcohol) and 87, 91, 128 % of control [5 of 6 alive] under setting [7]. The survivor count under setting [7] is listed as 2 of 6; the survivor count (dose: 40.0 mg/kg/injection, schedule: Q01DX009 (ip), vehicle: saline + alcohol) is 0 of 6 and 1 of 6; the survivor count (dose: 50.0 mg/kg/injection, schedule: Q01DX009 (ip), vehicle: saline + alcohol) was 0 of 6; the survivor count (dose: 100.0 mg/kg/injection, schedule: Q01DX009 (ip), vehicle: saline + alcohol) is on record as 0 of 6; the survivor count (dose: 200.0 mg/kg/injection, schedule: Q01DX009 (ip), vehicle: saline + alcohol) is 0 of 6.

Turning to `O=C(CC(O)c1ccccc1)Sc1ccccc1` (stereo not drawn), the survivor count (dose: 100.0 mg/kg/injection, schedule: Q04DX003 (ip), vehicle: Klucel (hydroxypropylcellulose) (HPC)) is reported as 3 of 6; the survivor count (dose: 200.0 mg/kg/injection, schedule: Q04DX003 (ip), vehicle: Klucel (hydroxypropylcellulose) (HPC)) was 2 of 6; the survivor count (dose: 400.0 mg/kg/injection, schedule: Q04DX003 (ip), vehicle: Klucel (hydroxypropylcellulose) (HPC)) was 1 of 6.

With `CC1=CCC(C)C(C)(C)C1CC/C(C)=C/CCC1(C)C(CCCO)/C(=C(\C)C=O)CCC1(C)O` (stereo not drawn), the survivor count (dose: 9.0 mg/kg/injection, schedule: Q01DX005 (ip), vehicle: Klucel (hydroxypropylcellulose) (HPC)) was 4 of 6; the survivor count (dose: 18.0 mg/kg/injection, schedule: Q01DX005 (ip), vehicle: Klucel (hydroxypropylcellulose) (HPC)) was 0 of 6; the survivor count (dose: 36.0 mg/kg/injection, schedule: Q01DX005 (ip), vehicle: Klucel (hydroxypropylcellulose) (HPC)) is given as 0 of 6.

As for `COc1cc2c(cc1OC)[C@]13C[C@@H](OC)C=CC14OC4CN3CCC2` (stereo partly drawn), the survivor count (dose: 300.0 mg/kg/injection, schedule: Q01DX009 (ip), vehicle: saline with Tween-80) is listed as 0 of 4.

Take `O=C(N1CCC2(CC1)SSC1(CCN(C(=O)C(F)(F)F)CC1)S2)C(F)(F)F`: for the setting “dose: 400.0 mg/kg/injection, schedule: Q04DX003 (ip), vehicle: saline with Tween-80”, the survivor count is recorded as 6 of 6.

As for `CC1CN=C(c2ccc(NC(=O)NCCCCCCCCCNC(=O)Nc3ccc(C4=NCC(C)N4)cc3)cc2)N1` (stereo not drawn), the T/C (dose: 50.0 mg/kg/injection, schedule: Q01DX005 (ip), vehicle: saline + Tween-80 + alcohol) was 128 % of control. The survivor count is, setting by setting: (dose: 100.0 mg/kg/injection, schedule: Q01DX005 (ip), vehicle: saline + Tween-80 + alcohol) 0 of 6; (dose: 200.0 mg/kg/injection, schedule: Q01DX005 (ip), vehicle: saline + Tween-80 + alcohol) 0 of 6.

For `COc1cccc2c1C(=O)c1c(O)c3c(c(O)c1C2=O)C[C@@](O)(/C(CO)=N/NC(=O)c1ccc(Cl)c(Cl)c1)C[C@@H]3OC1CC(N)C(O)C(C)O1` (stereo partly drawn), the T/C runs as follows: (dose: 0.25 mg/kg/injection, schedule: Q01DX009 (ip), vehicle: water) 125 % of control; (dose: 0.5 mg/kg/injection, schedule: Q01DX009 (ip), vehicle: water, evaluated on day 30) 143 % of control; (dose: 0.5 mg/kg/injection, schedule: Q01DX009 (ip), vehicle: water, evaluated on day 45) 137 % of control; (dose: 4.0 mg/kg/injection, schedule: Q04DX003 (ip), vehicle: saline) 128 % of control; (dose: 6.25 mg/kg/injection, schedule: Q04DX003 (ip), vehicle: water) 132 % of control; (dose: 8.0 mg/kg/injection, schedule: Q04DX003 (ip), vehicle: saline) 100, 118, 126, 146 % of control. Further, the T/C was 125, 126, 128, 181 % of control (dose: 16.0 mg/kg/injection, schedule: Q04DX003 (ip), vehicle: saline); 127, 131, 146, 172 % of control (dose: 32.0 mg/kg/injection, schedule: Q04DX003 (ip), vehicle: saline); 126 and 135 % of control (dose: 50.0 mg/kg/injection, schedule: Q04DX003 (ip), vehicle: water); 131, 137 (2×), 163 % of control (dose: 64.0 mg/kg/injection, schedule: Q04DX003 (ip), vehicle: saline); 134, 155 (2×), 168 % of control (dose: 128.0 mg/kg/injection, schedule: Q04DX003 (ip), vehicle: saline); 126, 128, 136, 137 % of control (dose: 256.0 mg/kg/injection, schedule: Q04DX003 (ip), vehicle: saline). Moreover, for the setting “dose: 512.0 mg/kg/injection, schedule: Q04DX003 (ip), vehicle: saline”, the T/C is 126 % of control. Further, the survivor count (dose: 16.0 mg/kg/injection, schedule: Q01DX009 (ip), vehicle: water) was 6 of 6 (2×) and the survivor count (dose: 2048.0 mg/kg/injection, schedule: Q04DX003 (ip), vehicle: saline) was 6 of 6 on day 9.

Turning to `C/C(=N\NC(=O)c1ccncc1)c1cccc(/C(C)=N/NC(=O)c2ccncc2)n1.CC(=O)[O-].CC(=O)[O-].[Zn+2]`, the survivor count under setting [4] was 6 of 6 and the survivor count under setting [5] is 6 of 6.

As for `O=C(Nc1ccccc1)Oc1ccc[nH]c1=O`, the T/C by setting is: under setting [8], 125 % of control; (dose: 100.0 mg/kg/injection, schedule: Q01DX009 (ip), vehicle: Klucel (hydroxypropylcellulose) (HPC)) 126 % of control; under setting [9], 130 and 132 % of control. Also, the survivor count by setting is: (dose: 200.0 mg/kg/injection, schedule: Q01DX009 (ip), vehicle: Klucel (hydroxypropylcellulose) (HPC)) 2 of 6 and 3 of 6; under setting [6], 6 of 6; (dose: 400.0 mg/kg/injection, schedule: Q01DX009 (ip), vehicle: Klucel (hydroxypropylcellulose) (HPC)) 0 of 6; (dose: 400.0 mg/kg/injection, schedule: Q01DX009 (ip), vehicle: saline) 0 of 6.

Take `CCCCCCN=C(N)N/N=C(\C)c1ccc2c(c1)Cc1ccccc1-2`: the survivor count (dose: 200.0 mg/kg/injection, schedule: Q04DX002 (ip), vehicle: saline with Tween-80) is 4 of 6.

For the molecule `Brc1ccc2nc3ccccc3c(SCCCCCCSc3c4ccccc4nc4ccc(Br)cc34)c2c1`, the survivor count under setting [2] was 6 of 6 and the survivor count under setting [3] is 6 of 6.

For the molecule `CCOC(=O)N1CCc2[nH]oc(=O)c2CC1`, the survivor count is 1 of 6 (dose: 25.0 mg/kg/injection, schedule: Q01DX009 (ip), vehicle: saline); 0 of 6 under setting [8]; 0 of 6 under setting [9]; 0 of 6 under setting [6].
